Measured data: PubChem BioAssay AID1671195 (Yale University, 2021)
Assay: 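Knockdowns that increase or decrease uptake of fluorescent LDL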 (primary screen). Cells: human Huh7 hepatoma cells. Reagent: siRNA pool against human genes, 18 nM. Time to read-out: about 2 to 2.5 days of knockdown, then 8 h LDL uptake. Challenge: DiI-labelled LDL at 30 µg/ml for 8 h, in lipoprotein-deficient serum medium. Read-out: 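Fluorescent LDL signal imaged in cells, scaled to the plate median, robust z-score for each replicate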. Scale: robust z-score: higher = more LDL uptake after knockdown. Rule for the call: 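Active when two or more replicates show a robust z-score above 2 or below -2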.
This is one part, drawn at random, of about 22,000 reagents tested. In the full data, about 1,510 (6.9%) are marked active. 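Active includes knockdowns raising or lowering LDL uptake; positive z-scores mean more uptake, negative mean less.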 Entries without a mark were called inactive.

gene,"robust z-score, replicate 1","robust z-score, replicate 2","robust z-score, replicate 3"
LOC442495 (retired record) (GeneID 442495),0.503,0.523,0.293
LOC440031 (retired record) (GeneID 440031),-0.735,-0.32,-1.08
TNKS2 (GeneID 80351),-0.0155,-0.296,-0.158
OR2AT4 (GeneID 341152),0.502,-0.0689,-0.0328
SDF2L1 (GeneID 23753),-1.43,-1.57,-0.504
TUBG2 (GeneID 27175),-0.213,-0.196,-0.273
LHX4 (GeneID 89884),0.399,2.42,0.848
HAO1 (GeneID 54363),0.777,0.713,1.14
MLXIPL (GeneID 51085),0.92,1.51,0.894
SLC35E2A (GeneID 9906),3.53 (active),4.66,1.6
HTR2C (GeneID 3358),1.39,1.38,1.61
TMEM150C (GeneID 441027),0.752,0.635,1.29
MRPL57 (GeneID 78988),0.37,1.47,0.903
PTN (GeneID 5764),-0.0401,0.415,0.124
LRRN4 (GeneID 164312),1.63,1.16,1.04
DPY30 (GeneID 84661),-0.862,-0.934,-1.04
PRIMA1 (GeneID 145270),1.44,0.609,1.31
ZNF518A (GeneID 9849),0.131,0.036,0.786
LINC00574 (GeneID 80069),-1.24,-0.678,-0.554
ICOS (GeneID 29851),0.328,-0.381,0.552
UQCRC2 (GeneID 7385),-0.391,-0.773,-0.598
CFL1P2 (GeneID 391039),-0.529,-0.025,-0.878
MROH5 (GeneID 389690),-0.487,-0.449,-0.441
PPM1K (GeneID 152926),0.611,0.837,0.697
POU2F2 (GeneID 5452),-0.246,-0.534,0.138
SLC35D1 (GeneID 23169),0.351,-0.312,0.454
EFNA5 (GeneID 1946),-0.511,-0.204,-0.481
DLEC1 (GeneID 9940),-2.13,-1.45,0.355
KL (GeneID 9365),3.22 (active),1.69,2.78
OPRM1 (GeneID 4988),0.771,0.408,1.48
LOC440772 (retired record) (GeneID 440772),-0.164,0.442,0.482
JAGN1 (GeneID 84522),-0.248,-0.112,0.747
FAM131A (GeneID 131408),-0.768,0.396,0.101
ANAPC4 (GeneID 29945),2.74 (active),1.46,2.63
GSAP (GeneID 54103),1.31,0.973,1.09
FAM131C (GeneID 348487),-0.0801,-0.355,0.205
FRRS1L (GeneID 23732),0.455,1.11,1.67
RPL15 (GeneID 6138),-0.759,-1.41,-0.718
HTT (GeneID 3064),0.593,0.0736,1.68
KISS1 (GeneID 3814),-0.873,-1.33,-1.01
SH2B1 (GeneID 25970),-0.468,-1.87,-0.68
SMLR1 (GeneID 100507203),-0.0121,0.271,0.27
NT5C (GeneID 30833),-0.599,-0.035,-0.772
TAS1R2 (GeneID 80834),-0.103,-0.285,0.0626
HEPACAM2 (GeneID 253012),-1.28,-0.744,-1.3
ECT2L (GeneID 345930),-0.437,-0.198,0.347
TREML4 (GeneID 285852),-0.515,-0.218,-0.13
LOC151154 (retired record) (GeneID 151154),-1.42,-1.01,-0.902
TIMP2 (GeneID 7077),-1.82,-1.33,0.95
ARNT (GeneID 405),0.387,0.506,0.628
SLC7A4 (GeneID 6545),3.4 (active),3.25,3.92
ZNF334 (GeneID 55713),0.4,0.495,0.395
AP2A1 (GeneID 160),-0.764,-1.14,-1.04
MYNN (GeneID 55892),-0.156,-1.58,-0.211
C1orf122 (GeneID 127687),0.344,0.524,0.176
EEPD1 (GeneID 80820),-0.333,-0.329,0.00986
AURKA (GeneID 6790),-0.42,-0.426,-0.147
GET3 (GeneID 439),-1.01,-0.946,-1.33
LINC01550 (GeneID 388011),-0.45,-0.324,-0.59
C9 (GeneID 735),-0.748,-1.19,0.323
CTSD (GeneID 1509),0.533,0.00969,0.537
LOC440035 (retired record) (GeneID 440035),1.58,1.02,0.626
VSX1 (GeneID 30813),-1.43,-1.79,-1.67
TAF9 (GeneID 6880),2.15,1.73,0.967
SDC2 (GeneID 6383),0.554,-1.18,-1.3
LOC440965 (retired record) (GeneID 440965),0.656,0.97,0.958
PTPN3 (GeneID 5774),-2 (active),-1.8,-2.02
ACMSD (GeneID 130013),0.404,0.532,-0.173
